These are yes or no findings as the source states them, for the method shown. Some results given as binding are weak or reduced against the parent protein; the word gives no strength.

By UniProt entry, the sequences of proteins in these tests, tags left out. Where a name states a change or a piece, a line headed by the entry shows the natural chain unless it says otherwise. Chains listed by the source or under a name are the forms on record and can include a tag or linker.
rhesus DLL3 (F6TFV4, form named): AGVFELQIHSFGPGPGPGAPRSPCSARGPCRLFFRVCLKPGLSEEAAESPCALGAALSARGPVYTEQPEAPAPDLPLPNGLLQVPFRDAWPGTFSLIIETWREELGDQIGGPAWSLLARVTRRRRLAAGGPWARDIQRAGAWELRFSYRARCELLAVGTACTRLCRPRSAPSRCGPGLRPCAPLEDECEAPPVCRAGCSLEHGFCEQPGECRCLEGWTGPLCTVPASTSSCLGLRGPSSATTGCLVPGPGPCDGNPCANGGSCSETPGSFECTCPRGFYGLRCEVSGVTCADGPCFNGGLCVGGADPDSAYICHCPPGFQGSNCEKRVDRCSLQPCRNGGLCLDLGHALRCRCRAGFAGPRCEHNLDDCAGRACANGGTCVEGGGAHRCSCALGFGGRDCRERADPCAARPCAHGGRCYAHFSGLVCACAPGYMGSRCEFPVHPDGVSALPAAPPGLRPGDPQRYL

Our source for the binding values is patent US20220249563A1 (LEGEND BIOTECH IRELAND, published 2022).

The target of the assay is rhesus DLL3 (rhesus) (UniProt F6TFV4). The assay is described as follows: ELISA (protein), FACS (cells).

B1: AS68170 (VHH)
VHH: QVQLVESGGGSVQAGGSLRLSCTASGYTYRSNCMGWFRQAPGKEREGVATIYTGGGRNLYYADSVKGRFTISRDNAKNTLYLQMNSLKPEDSARYYCAAASDVAVGVNSCGGRTAGFDAWGQGTQVTVSS
notes: camel sdAb; crude E. coli supernatant
Regarding B1, the binding entry is recorded as “binds”.

B2: AS64420 (VHH)
VHH: EVQLVESGGGSVQAEGSLRLSCAASGDTSRSVWMGWARQVPGKEREVVATISTAGGSTWYTDSVKGRFTISQDNAKNTVYLQMNSLKPEDTAIYYCAARSRYATYWGQGTQVTVSS
notes: as for B1
On to B2, for which the binding result is listed as “binds”.

B3: AS64594 (VHH)
VHH: QVHLVESGGGSVQAGGSLRLSCAASGYTYNSNYMGWFRQAPGKEREGVALIYTGGGSTYYADSVKGRFTISRDNAKNTVYLQMNSLKPEDTAMYYCSVRTQTRNYWGQGTQVTVSS
notes: as for B1
B3: the binding result is listed as “binds”.

B4: AS64475 (VHH)
VHH: QVQLQESGGGSVQAGGSLRLSCAASGYTWSRNWMGWFRQAPGKEREGFATITISGGSTWYADSVKGRFTISLDNAGNTVYLQMNSLKPEDTAMYYCAARDTARTYWGQGTQVTVSS
notes: as for B1
For the molecule B4, the binding result was “binds”.

B5: AS64346 (VHH)
VHH: QVHLVESGGGSVQAGGSLRLSCAASGYTYFMGWFRQAPQKEREWVATIGTGDIFNGAAYYVDSVKGRFAISQDNAKNTVYLQMNSLKPEDTAVYVCAAVQSKSSNYVLRDASTYNYWGQGTQVTVSS
notes: as for B1
Regarding B5, the binding entry is recorded as “binds”.

B6: AS68270 (VHH)
VHH: QVQLAESGGGSVQAGGSLRLSCVASGYPSSTYYMLSMAWFRQAPGKEREGVAAITSGTGSTSYADSVKDRFTISKDYANNTLYLHINNLKPEDTAMYYCAAASGWIVPSRSLTANLYRYWGQGTQVTVSS
notes: as for B1
As for B6, the binding entry is “binds”.

B7: AS68121 (VHH)
VHH: EVQLAESGGGSVQAGGSLRLSCDASGYTYSRNCMGWFRQAPGKEREGVAAFYTDYIRFGRTYYADSVKGRFTIFQDNAKNTVYLQMNSLKPEDTAMYYCAADPGSRTDDSCGTSYNKGNFGYWGQGTQVTVSS
notes: as for B1
With B7, the binding entry was “binds”.

B8: AS63984 (VHH)
VHH: QVKLVESGGGSVQAGGSLRLSCAASGYTYSSNFMGWFRQAPGKEREGVATIVSGGGTTYYADSVRGRFTISQDNAKNTVYLQMNSLKPEDTAMYYCAAGGPVTNAPRWYPLRPPGYNYWGQGTQVTVSS
notes: as for B1
Regarding B8, the binding result is reported as “binds”.

B9: AS64207 (VHH)
VHH: EVQLVESGGGSVQAGGSLRLSCAASGYTYSSNFMGWFRQAPGKEREGVATIVSGGGTTYYADSVRGRFTISQDNAKNTVYLQMNSLKPEDTAMYYCAAGGPPTNGAKWYPLRPPGYNYWGQGTQVTVSS
notes: as for B1
Turning to B9, the binding result is given as “binds”.

B10: AS64118 (VHH)
VHH: QVQLAESGGGSVQAGGSLRLSCAASGYTYSACRMAWYRQAPGKERELVSFINSAGSTYYADSVKGRFAISRDNAKTTVYLQMNALKAEDTAIYYCNTWDSSCRFQYWGQGTQVTVSS
notes: as for B1
Consider B10, for which the binding entry is listed as “binds”.

B11: AS64513 (VHH)
VHH: EVQLVESGGGSVQAGGSLRLSCVASDYPYIDNCMGWFRQGPGKEREGVAAACTGGGSTYYADSVKGRFTISRDNAKNTVYLQMNSLKPEDTDVYYCATGYYSGSGPGYLLPWRYNYWGQGTQVTVSS
notes: as for B1
As to B11, the binding entry was “binds”.

B12: AS64276 (VHH)
VHH: QVHLMESGGGSVQAGGSLSLSCVVSGYTGSSRCMAWFRQAPGKEREAVAQIFTGRGTTGYADSVKGRFTISQDNAKNTVYLRMNSLRPEDTAIYYCAASLGPGRGACGYNYWGQGTQVTVSS
notes: as for B1
Take B12: the binding entry is recorded as “binds”.

B13: AS64183 (VHH)
VHH: QVHLVESGGGSVQAGGSLRLSCAASGHTYSANCMAWFRRAPGKEREWVASVYTDDDSTMYTDSVKGRFTIFQDNAKNTVYLQMNSLKPEDTGMYICAADLSGGPAGCGYTHWGQGTQVTVSS
notes: as for B1
Turning to B13, the binding result is “binds”.

B14: AS64047 HCAb (Fc fusion, not shown: a dimerising Fc or GST)
chain: QVHLVESGGGSVQAGGSLRLSCAASQYVYRWDLMGWFRQAPGKEREAVAAVYTGDGITYYADSVKGRFSISQDNAKNTVYLQMNSLKPEDTGMYFCAAGFVSGGRWNQSYRYKYWGQGTQVTVSS
B14: the binding entry is “binds”.

B15: AS63997 HCAb (Fc fusion, not shown: a dimerising Fc or GST)
chain: QVRLVESGGGSVQAGGSLRLSCAGSFSGYGVSTMAWFRQAPGKEREGVAAITVGSGNTYYADSVKGRFTISRDNAKRTVFLQMNSLKPEDTAMYYCAVGYLSGGSWDVPGRYNYWGQGTQVTVSS
notes: camel sdAb fused with human IgG1 hinge and Fc (chimeric HCAb), crude HEK293 medium
For B15, the binding result was “binds”.

B16: AS64163 (VHH)
VHH: QVRLVESGGGSVQAGGSLRLSCAVSGYRYRWNCMAWFRQAPGKEREGVAAISTGSGSTYYAGSVKGRFTISQDNAKNMYLQMNSLKPEDTAMYYCAADPSVCPGGMWYSKEYRYWGQGTQVTVSS
notes: as for B1
For the molecule B16, the binding result is reported as “binds”.

B17: AS64124 (VHH)
VHH: QVKLVESGGGSVQTGGSLRLSCAVSTYTPSNNYMGWFRQAPGKEREGVAAIATIGGTTRYADSVKGRFTISQDGAKNTIYLQMNGLKPEDTAMYYCAAGRPYSLPLPLPLESGAYRYWGQGTQVTVSS
notes: as for B1
For B17, the binding entry is recorded as “binds”.

B18: AS64562 (VHH)
VHH: EVQLVESGGGSVQAGGSLRLSCAASGYTARRDFMAWFRQVPGKEREGVAVIHTGGDTTYYADSVKGRFTISRDNAQNIMNLQMNSLKPEDTAMYYCAAGFRPRGGGYTGDVLAQAAAYNYWGQGTQVTVSS
notes: as for B1
For the molecule B18, the binding result is reported as “binds”.

B19: AS64336 (VHH)
VHH: QVQLVESGGGSVQAGGSLRLSCTTSGRTYSSCSMGWYRQAPGKERELVSHIFSDGSRYYADSVKGRFTISQDNAKNTVYLQMNSLKPEDTAMYYCNRRTGWAPRCAVPGYWGQGTQVTVSS
notes: as for B1
As to B19, the binding entry is “binds”.

B20: AS64605 (VHH)
VHH: QVKLVESGGGSVQAGGSLRLSCAVSRYPYSSICMGWFRQAPGKESEGVARIYTGTGSTWYTDSVKGRFTIARDNAQNTVYLQMNSLKPEDTAMYYCAARSNSYSYSSCDYGPLTRGGYNFWGQGTQVTVSS
notes: as for B1
Consider B20, for which the binding entry is “binds”.

B21: AS64135 (VHH)
VHH: QVKLVESGGGSVQAGGSLRLSCVASTSTYCRYYMRWYRQAPGKEREFVSAMQPDGTTSYSDSVKGRFTMSQDRANNMLYLQMNSLRPEDTAMYYCKRDPMGGSRTPCTSAWGQGTQVTVSS
notes: as for B1
Consider B21, for which the binding entry is listed as “binds”.

B22: AS63964 (VHH)
VHH: QVRLVESGGGSVQAGGSLRLSCSASGYTYSYNNMGWFRQAPGNEREGVAAISGGRFTAYADSVKGRFTISRDNAENTLYLQMNNLKPEDTGMYYCAAEVVDPTWGSRDQRRYKYWGQGTQVTVSS
notes: as for B1
For the molecule B22, the binding result was “binds”.

B23: AS64116 (VHH)
VHH: QVKLVESGGGSVQAGGSLRLSCAASGYIYSCVGWFRQAPGKEREGVAGISTGGGGTVYADSVKGQFTISRDNAKNTVYLQMDSLKPEDTAMYYCAADRWNSFANCGAWGRYTYWGQGTQVTVSS
notes: as for B1
Take B23: the binding result is “binds”.

B24: AS63987 (VHH)
VHH: QVRLVESGGGSVQAGGSLRLSCEATGYRNCMAWFRQAPGKEREGVAVIYTPSGITDYASSVKGRFTISQNNARNTQYLQMNSLKPEDTAMYYCAADRPFVCNIANMRRSSNWGRGTQVTVSS
notes: as for B1
With B24, the binding result is “binds”.

B25: AS64583 (VHH)
VHH: EVQLAESGGGLVQAGGSLRLSCTASGFTIAVYTMGWFRQAPGKEREGISCTSWAGGRTYTADSVKGRFTISRDNAKNTLYLQMNSLKPEDTAMYYCAAKAHPDCSGDWSPSGYEYWGQGTQVTVSS
notes: as for B1
As to B25, the binding result is “binds”.

B26: AS63948 (VHH)
VHH: QVQLVESGGGSVQAGGSLRLSCTASGYTYRYLYMGWFRQTPGKEREGVACIYTGSGSTGYADSVKGRFTISQDNAENTVYLQMNSLKPEDTAMYYCAAASPRWGGTCRRWSEYNYWGQGTQVTVSS
notes: as for B1
Regarding B26, the binding result is reported as “binds”.

B27: AS64473 (VHH)
VHH: QVRLVESGGGSVQAGGSLRLSCTASGYTYRYLYMAWFRQTPGKEREGVACIYTGSGTTGYADSVKGRFTISQDNAKNTVYLQMNSLNAEDTAMYYCAASSPQWGGTCRRWSEYNYWGQGTQVTVSS
notes: as for B1
For the molecule B27, the binding entry was “binds”.

B28: AS64182 (VHH)
VHH: QVHLMESGGGSVQAGGSLRLSCTASGQTSRYLYMGWFRQTPGKEREGVACIYTGSGSTGYADSVKGRFTISQDNAKNTVYLQTNSLKPEDTAMYYCAASSPHWGGTCRRWSEYKYWGQGTQVTVSS
notes: as for B1
For the molecule B28, the binding entry is listed as “binds”.

B29: AS64154 (VHH)
VHH: QVQLKESGGGSVQAGGSLRLSCTASGYTYRYLYMGWFRQTPGKEREGVACIYTGSGSTGYADSVKGRFTISQDNAKNTVYLQMNNLKPEDTAMYYCAASSPRWGGTCRRWSQYNYWGQGTQVTVSS
notes: as for B1
Take B29: the binding entry is “binds”.

B30: AS64120 (VHH)
VHH: QVRLVESGGGSVQAGGSLRLSCETSRYIYGNNCMAWFRQAPGKEREGVASIYPAGGRPYYADSVKGRFTISQDNAKNTVYLQMDSLKPEDTAMYYCAARSFSIADCATQSGITRSNFAYWGQGTQVTVSS
notes: as for B1
For the molecule B30, the binding result is “binds”.

B31: AS64093 (VHH)
VHH: QVHLVESGGGSVQAGGSLRLSCATSRYIYGNNCMAWFRQAPGKEREGVASIYPAGGRTYYADSVKGRFTISQDNAKNTVYLQIDSLKPEDTAMYYCAARSFSIGVCATQSGITWSNFAYWGQGTQVTVSS
notes: as for B1
As for B31, the binding entry is given as “binds”.

B32: AS63951 (VHH)
VHH: QVHLMESGGGSVQAGGSLRLACETSRDIYGNNCMAWFRQAPGKEREGVASIYPAGGRPYYADSVKGRFTISQDNAKNTVYLQMDSLKPEDTAMYYCAARSFSIAVCATRSGITRSNFAYWGQGTQVTVSS
notes: as for B1
Consider B32, for which the binding result is recorded as “binds”.
